According to the supplement of paper PMC10077471:
Over roughly 1,900 compounds, “excess over highest single agent (ExcessHSA) synergy score, 6x6 matrix” has its median near -83; the lowest 2% begin near -370. The list shows a part of the results.

What follows are molecules tested on NCI-H446 (assay: excess over highest single agent (ExcessHSA) synergy score, 6x6 matrix; higher = less synergy (more negative = stronger synergy)). Details: 72 h; CellTiter-Glo viability.

SMILES	excess over highest single agent
O=C(CCCN1CCC(O)(c2ccc(Cl)cc2)CC1)c1ccc(F)cc1 + Cc1sc2c(c1C)C(c1ccc(Cl)cc1)=N[C@@H](CC(=O)OC(C)(C)C)c1nnc(C)n1-2 [NCGC00250412-19]	-225
CN1CCN(Cc2ccc(NC(=O)Nc3ccc(Oc4cc(NC(=O)C5CC5)ncn4)cc3)cc2C(F)(F)F)CC1 + Cc1sc2c(c1C)C(c1ccc(Cl)cc1)=N[C@@H](CC(=O)OC(C)(C)C)c1nnc(C)n1-2 [NCGC00250412-19]	-34.2
COc1cc2c(cc1OC)[C@@H]1Cc3ccc(OC)c(OC)c3CN1CC2 + Cc1sc2c(c1C)C(c1ccc(Cl)cc1)=N[C@@H](CC(=O)OC(C)(C)C)c1nnc(C)n1-2 [NCGC00250412-19]	-95.9
CN1CCC(CNc2ccc3ncc(-c4cccc(OC(F)(F)F)c4)n3n2)CC1 + Cc1sc2c(c1C)C(c1ccc(Cl)cc1)=N[C@@H](CC(=O)OC(C)(C)C)c1nnc(C)n1-2 [NCGC00250412-19]	-9.83
COc1cc(C=CC(=O)O)ccc1O + Cc1sc2c(c1C)C(c1ccc(Cl)cc1)=N[C@@H](CC(=O)OC(C)(C)C)c1nnc(C)n1-2 [NCGC00250412-19]	22.9
COc1cc2c(cc1OC)[C@@H]1C(=O)c3ccc4c(c3O[C@@H]1CO2)C=CC(C)(C)O4 + Cc1sc2c(c1C)C(c1ccc(Cl)cc1)=N[C@@H](CC(=O)OC(C)(C)C)c1nnc(C)n1-2 [NCGC00250412-19]	-58.6
C=C(C)[C@@H]1CC[C@]2(C)CC[C@]3(C)[C@H](CC[C@@H]4[C@@]5(C)CC[C@H](O)C(C)(C)[C@@H]5CC[C@]43C)[C@@H]12 + Cc1sc2c(c1C)C(c1ccc(Cl)cc1)=N[C@@H](CC(=O)OC(C)(C)C)c1nnc(C)n1-2 [NCGC00250412-19]	-246
CC(C)c1cnn2c(NCc3ccccc3)cc(N[C@@H](CO)[C@H](O)CO)nc12 + Cc1sc2c(c1C)C(c1ccc(Cl)cc1)=N[C@@H](CC(=O)OC(C)(C)C)c1nnc(C)n1-2 [NCGC00250412-19]	-182
O=C(C=CC#Cc1cccc(NS(=O)(=O)c2ccccc2)c1)NO + Cc1sc2c(c1C)C(c1ccc(Cl)cc1)=N[C@@H](CC(=O)OC(C)(C)C)c1nnc(C)n1-2 [NCGC00250412-19]	-234
Cc1cccc(-c2[nH]ncc2-c2ccc3ncccc3n2)n1 + Cc1sc2c(c1C)C(c1ccc(Cl)cc1)=N[C@@H](CC(=O)OC(C)(C)C)c1nnc(C)n1-2 [NCGC00250412-19]	124
O=C(NCCCNc1nc(Nc2cccc(NC(=O)N3CCCC3)c2)ncc1I)c1cccs1 + Cc1sc2c(c1C)C(c1ccc(Cl)cc1)=N[C@@H](CC(=O)OC(C)(C)C)c1nnc(C)n1-2 [NCGC00250412-19]	-137
CN(C)CCOc1cc(-c2cn[nH]c2)ccc1NC(=O)C1COc2ccccc2O1 (stereo not drawn) + Cc1sc2c(c1C)C(c1ccc(Cl)cc1)=N[C@@H](CC(=O)OC(C)(C)C)c1nnc(C)n1-2 [NCGC00250412-19]	-160
c1cc(CN2CCCNCCNCCCNCC2)ccc1CN1CCCNCCNCCCNCC1 + Cc1sc2c(c1C)C(c1ccc(Cl)cc1)=N[C@@H](CC(=O)OC(C)(C)C)c1nnc(C)n1-2 [NCGC00250412-19]	-64.1
CCNC(=O)c1cc2c(-c3cc(OCCN4CCCC4)c(Cl)cc3Cl)nc(N)nc2s1 + Cc1sc2c(c1C)C(c1ccc(Cl)cc1)=N[C@@H](CC(=O)OC(C)(C)C)c1nnc(C)n1-2 [NCGC00250412-19]	-89.1
CC(C)n1cnc2c(NCCc3ccc(O)cc3)nc(-c3csc4ccccc34)nc21 + Cc1sc2c(c1C)C(c1ccc(Cl)cc1)=N[C@@H](CC(=O)OC(C)(C)C)c1nnc(C)n1-2 [NCGC00250412-19]	-111
O=C(CN1C(=O)C2(CCCC2)NC[C@H]1c1cc(F)cc(F)c1)Nc1ccc2c(c1)C[C@@]1(C2)C(=O)Nc2ncccc21 + Cc1sc2c(c1C)C(c1ccc(Cl)cc1)=N[C@@H](CC(=O)OC(C)(C)C)c1nnc(C)n1-2 [NCGC00250412-19]	-59.7
COc1ccc2c3c1O[C@H]1C[C@@H](O)C=C[C@@]31CCN(C)C2 + Cc1sc2c(c1C)C(c1ccc(Cl)cc1)=N[C@@H](CC(=O)OC(C)(C)C)c1nnc(C)n1-2 [NCGC00250412-19]	-60.7
O=c1[nH]c(=O)n([C@H]2C[C@H](O)[C@@H](CO)O2)cc1C(F)(F)F + Cc1sc2c(c1C)C(c1ccc(Cl)cc1)=N[C@@H](CC(=O)OC(C)(C)C)c1nnc(C)n1-2 [NCGC00250412-19]	-189
Cn1cncc1[C@@](N)(c1ccc(Cl)cc1)c1ccc2c(c1)c(-c1cccc(Cl)c1)cc(=O)n2C + Cc1sc2c(c1C)C(c1ccc(Cl)cc1)=N[C@@H](CC(=O)OC(C)(C)C)c1nnc(C)n1-2 [NCGC00250412-19]	-335

A portion from the list above:
SMILES	excess over highest single agent
COc1ccc2c3c1O[C@H]1C[C@@H](O)C=C[C@@]31CCN(C)C2 + Cc1sc2c(c1C)C(c1ccc(Cl)cc1)=N[C@@H](CC(=O)OC(C)(C)C)c1nnc(C)n1-2 [NCGC00250412-19]	-60.7
O=c1[nH]c(=O)n([C@H]2C[C@H](O)[C@@H](CO)O2)cc1C(F)(F)F + Cc1sc2c(c1C)C(c1ccc(Cl)cc1)=N[C@@H](CC(=O)OC(C)(C)C)c1nnc(C)n1-2 [NCGC00250412-19]	-189
Cn1cncc1[C@@](N)(c1ccc(Cl)cc1)c1ccc2c(c1)c(-c1cccc(Cl)c1)cc(=O)n2C + Cc1sc2c(c1C)C(c1ccc(Cl)cc1)=N[C@@H](CC(=O)OC(C)(C)C)c1nnc(C)n1-2 [NCGC00250412-19]	-335

The listing continues:

SMILES	excess over highest single agent
CON(C)C(=O)N1N=C(c2cc(F)ccc2F)S[C@@]1(CCCN)c1ccccc1 + Cc1sc2c(c1C)C(c1ccc(Cl)cc1)=N[C@@H](CC(=O)OC(C)(C)C)c1nnc(C)n1-2 [NCGC00250412-19]	-262
NC(=O)N1c2ccccc2CC(=O)c2ccccc21 + Cc1sc2c(c1C)C(c1ccc(Cl)cc1)=N[C@@H](CC(=O)OC(C)(C)C)c1nnc(C)n1-2 [NCGC00250412-19]	-88.6
Oc1nc(-c2ccc(C(F)(F)F)cc2)nc2c1CSCC2 + Cc1sc2c(c1C)C(c1ccc(Cl)cc1)=N[C@@H](CC(=O)OC(C)(C)C)c1nnc(C)n1-2 [NCGC00250412-19]	9.55
Cc1cnc(Nc2ccc(CN3CCOCC3)cc2)nc1Nc1cccc(S(=O)(=O)NC(C)(C)C)c1 + Cc1sc2c(c1C)C(c1ccc(Cl)cc1)=N[C@@H](CC(=O)OC(C)(C)C)c1nnc(C)n1-2 [NCGC00250412-19]	52
C[C@]12O[C@H](C[C@]1(O)CO)n1c3ccccc3c3c4c(c5c6ccccc6n2c5c31)CNC4=O + Cc1sc2c(c1C)C(c1ccc(Cl)cc1)=N[C@@H](CC(=O)OC(C)(C)C)c1nnc(C)n1-2 [NCGC00250412-19]	-297
CC(C)Cn1cnc2c(N)nc3ccccc3c21 + Cc1sc2c(c1C)C(c1ccc(Cl)cc1)=N[C@@H](CC(=O)OC(C)(C)C)c1nnc(C)n1-2 [NCGC00250412-19]	-18.3
CN(C)c1ccc(-c2nc3ncc(Cl)c(N4CCN(CC(=O)Nc5nccs5)CC4)c3[nH]2)cc1 + Cc1sc2c(c1C)C(c1ccc(Cl)cc1)=N[C@@H](CC(=O)OC(C)(C)C)c1nnc(C)n1-2 [NCGC00250412-19]	-382
O=C1CCCC2=C1C(c1[nH]ncc1Cl)N=C(Nc1nc3ccccc3o1)N2 (stereo not drawn) + Cc1sc2c(c1C)C(c1ccc(Cl)cc1)=N[C@@H](CC(=O)OC(C)(C)C)c1nnc(C)n1-2 [NCGC00250412-19]	-160
CC(C)(C)c1cc(C(=O)O)c(NC(=O)Nc2ccc3[nH]ncc3c2)s1 + Cc1sc2c(c1C)C(c1ccc(Cl)cc1)=N[C@@H](CC(=O)OC(C)(C)C)c1nnc(C)n1-2 [NCGC00250412-19]	46.3
CC(C)n1cnc2c(NCCCCCCNC(=O)OC(C)(C)C)nc(NCCO)nc21 + Cc1sc2c(c1C)C(c1ccc(Cl)cc1)=N[C@@H](CC(=O)OC(C)(C)C)c1nnc(C)n1-2 [NCGC00250412-19]	-65.3
CCCCN1CCC(CNC(=O)c2c3n(c4ccccc24)CCCO3)CC1 + Cc1sc2c(c1C)C(c1ccc(Cl)cc1)=N[C@@H](CC(=O)OC(C)(C)C)c1nnc(C)n1-2 [NCGC00250412-19]	-45
COc1cc(NS(=O)(=O)c2ccc(N)cc2)nc(OC)n1 + Cc1sc2c(c1C)C(c1ccc(Cl)cc1)=N[C@@H](CC(=O)OC(C)(C)C)c1nnc(C)n1-2 [NCGC00250412-19]	-57.6
Cc1cccc(Nc2ccncc2S(=O)(=O)NC(=O)NC(C)C)c1 + Cc1sc2c(c1C)C(c1ccc(Cl)cc1)=N[C@@H](CC(=O)OC(C)(C)C)c1nnc(C)n1-2 [NCGC00250412-19]	-155
O=C(c1ccc(F)cc1)N1CCC[C@H](c2nc(-c3ccc(F)cc3)no2)C1 + Cc1sc2c(c1C)C(c1ccc(Cl)cc1)=N[C@@H](CC(=O)OC(C)(C)C)c1nnc(C)n1-2 [NCGC00250412-19]	-46.8
N#C[C@H](O[C@@H]1O[C@H](CO[C@@H]2O[C@H](CO)[C@@H](O)[C@H](O)[C@H]2O)[C@@H](O)[C@H](O)[C@H]1O)c1ccccc1 + Cc1sc2c(c1C)C(c1ccc(Cl)cc1)=N[C@@H](CC(=O)OC(C)(C)C)c1nnc(C)n1-2 [NCGC00250412-19]	-35.5
CNC(=O)c1ccc(N2C(=S)N(c3cnc(C#N)c(C(F)(F)F)c3)C(=O)C23CCC3)cc1F + Cc1sc2c(c1C)C(c1ccc(Cl)cc1)=N[C@@H](CC(=O)OC(C)(C)C)c1nnc(C)n1-2 [NCGC00250412-19]	-9.84
O=C1c2ccccc2-c2n[nH]c3cccc1c23 + Cc1sc2c(c1C)C(c1ccc(Cl)cc1)=N[C@@H](CC(=O)OC(C)(C)C)c1nnc(C)n1-2 [NCGC00250412-19]	-138
O=C(c1ccc(OCCN2CCCCC2)cc1)c1c(-c2ccc(O)cc2)sc2cc(O)ccc12 + Cc1sc2c(c1C)C(c1ccc(Cl)cc1)=N[C@@H](CC(=O)OC(C)(C)C)c1nnc(C)n1-2 [NCGC00250412-19]	-84.2
CO[C@@H]1[C@H](N(C)C(=O)c2ccccc2)C[C@H]2O[C@]1(C)n1c3ccccc3c3c4c(c5c6ccccc6n2c5c31)C(=O)NC4=O + Cc1sc2c(c1C)C(c1ccc(Cl)cc1)=N[C@@H](CC(=O)OC(C)(C)C)c1nnc(C)n1-2 [NCGC00250412-19]	-113
